Assay [1] deals with Histone Deacetylase 1 (HDAC1) (human (endogenous in HUVECs)) (UniProt Q13547). Nature of the assay: co-IP; HUVEC lysate (50 mM Tris-HCl pH 7.4, 100 mM NaCl, 10% glycerol, 0.5% NP-40, 1 mM DTT, 1 mM PMSF); IP with anti-HDAC1 antibody or non-specific IgG, 4 °C 12-16 h, Protein A/G magnetic beads; western blot; cells treated with 5 μM Yoda1 for 2 h or untreated.
Assay [2] has the same target. Nature of the assay: proximity ligation; Duolink In Situ Red kit on fixed HUVECs; primary antibodies against NFAT2 (1:50) and HDAC1 (1:50); cells treated with 5 μM Yoda1 for 2 h, with or without FK506 pretreatment.

Amino acid sequences for entries named in this document (tags omitted).
UniProt Q13547: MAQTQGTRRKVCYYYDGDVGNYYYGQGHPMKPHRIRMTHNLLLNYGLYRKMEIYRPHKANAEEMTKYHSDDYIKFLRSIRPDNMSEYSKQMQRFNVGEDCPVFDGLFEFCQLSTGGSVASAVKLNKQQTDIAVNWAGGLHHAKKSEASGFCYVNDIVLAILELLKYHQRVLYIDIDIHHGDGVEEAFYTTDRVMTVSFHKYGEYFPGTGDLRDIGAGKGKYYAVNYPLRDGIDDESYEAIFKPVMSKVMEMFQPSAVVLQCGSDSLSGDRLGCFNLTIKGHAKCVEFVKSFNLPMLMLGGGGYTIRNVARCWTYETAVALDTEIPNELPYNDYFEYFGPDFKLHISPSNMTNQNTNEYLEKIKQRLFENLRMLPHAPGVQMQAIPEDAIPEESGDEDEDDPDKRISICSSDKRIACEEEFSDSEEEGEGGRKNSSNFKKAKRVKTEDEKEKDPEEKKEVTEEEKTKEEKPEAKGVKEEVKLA

Results are given in words; binding and its absence hold for the method and conditions named. Binding seen in cells or lysates may run through a third protein. Some results given as binding are weak or reduced against the parent protein; the word gives no strength.

B1: Nuclear Factor of Activated T-cells 2 (NFAT2) (protein, UniProt O95644 1-943)
chain: MPSTSFPVPSKFPLGPAAAVFGRGETLGPAPRAGGTMKSAEEEHYGYASSNVSPALPLPTAHSTLPAPCHNLQTSTPGIIPPADHPSGYGAALDGGPAGYFLSSGHTRPDGAPALESPRIEITSCLGLYHNNNQFFHDVEVEDVLPSSKRSPSTATLSLPSLEAYRDPSCLSPASSLSSRSCNSEASSYESNYSYPYASPQTSPWQSPCVSPKTTDPEEGFPRGLGACTLLGSPRHSPSTSPRASVTEESWLGARSSRPASPCNKRKYSLNGRQPPYSPHHSPTPSPHGSPRVSVTDDSWLGNTTQYTSSAIVAAINALTTDSSLDLGDGVPVKSRKTTLEQPPSVALKVEPVGEDLGSPPPPADFAPEDYSSFQHIRKGGFCDQYLAVPQHPYQWAKPKPLSPTSYMSPTLPALDWQLPSHSGPYELRIEVQPKSHHRAHYETEGSRGAVKASAGGHPIVQLHGYLENEPLMLQLFIGTADDRLLRPHAFYQVHRITGKTVSTTSHEAILSNTKVLEIPLLPENSMRAVIDCAGILKLRNSDIELRKGETDIGRKNTRVRLVFRVHVPQPSGRTLSLQVASNPIECSQRSAQELPLVEKQSTDSYPVVGGKKMVLSGHNFLQDSKVIFVEKAPDGHHVWEMEAKTDRDLCKPNSLVVEIPPFRNQRITSPVHVSFYVCNGKRKRSQYQRFTYLPANVPIIKTEPTDDYEPAPTCGPVSQGLSPLPRPYYSQQLAMPPDPSSCLVAGFPPCPQRSTLMPAAPGVSPKLHDLSPAAYTKGVASPGHCHLGLPQPAGEAPAVQDVPRPVATHPGSPGQPPPALLPQQVSAPPSSSCPPGLEHSLCPSSPSPPLPPATQEPTCLQPCSPACPPATGRPQHLPSTVRRDESPTAGPRLLPEVHEDGSPNLAPIPVTVKREPEELDQLYLDDVNEIIRNDLSSTSTHS
On to B1, for which the binding entry in assay [1] and in assay [2] was “binds” throughout.
